## Library screening results

Measurements from “University of Dundee, Small-Polar-MMV Screening Library” (2021), ChEMBL document CHEMBL3988442.

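Whole-cell assay for inhibitors of Mycobacterium tuberculosis growth, labelled Cornell in the record; the read-out is not stated. The concentration is filed as 10 mM, unlikely as a test dose, so the dose is not known. Higher means stronger inhibition (inferred from two other growth screens of the library). Size under these conditions: about 53,000 compounds, about 900 of them at 50% or above in at least one test.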

Each number is a percent effect as filed.
The controls that fix the scale are not given in the record; negative values are as filed.
The compounds are a random part of those screened.

Result for CN(c1ncccc1CNC(=O)c1cscn1)C1CCCCC1 was 20.11%. With O=C(NC[C@H]1OC[C@@H](NC(=O)C2CCCC2)[C@@H]1O)c1ccncc1 the screen gave -33.29%. For Cc1ccc(NC(=O)NC(C)Cn2cccn2)cc1 (centres unmarked) the result was -2.089%. O=C(CCN1CCOCC1)Nc1cccc(CNCc2ccsc2)c1 gave -16.34%. Cc1nn(CCO)c(C)c1CNCc1cccnc1N(C)C gave 10.45%.

For [H][C@@]12OCCN(C(=O)C3CCOCC3)[C@@]1([H])CC[C@@H]2OCc1ccncc1 the result was 0.4323%. O=C(NCC1(O)CCOC1)NCC1(c2ccccc2Cl)CCC1 (centres unmarked) gave 12.95%. Result for CN1CCN(c2ccc(NC(=O)c3cccs3)c(C(F)(F)F)c2)CC1 was -111.2%. COc1ccc(F)cc1-c1nc2c([nH]1)c(C1CC1)nn2C read 11.97%. COc1ccc(CN2CCc3sccc3C2C)cc1CN1CCOCC1.Cl (centres unmarked) read 18.96%.

CC(C)CS(=O)(=O)N1CCC2(CN(c3ccsc3)C(=O)CN2C)C1.O=C(O)C(F)(F)F (centres unmarked) read -4.362%. CN(CCc1ccc(F)cc1)Cc1nc2c(cnn2C)c(=O)[nH]1 read 16.88%. Result for Cc1cc(C(=O)NC2(C#N)CCCC2)c(C)n1-c1cccnc1 was 5.567%. For [H][C@]12CC[C@]([H])(CN(S(=O)(=O)CCC)C1)N(Cc1cscn1)C2=O the result was -31.38%. With CC(NC(=O)N1CCCN(CC(F)F)CC1)c1ccco1 (centres unmarked) the screen gave -42.9%.

With COc1cccc(CC(=O)NC2CCCc3cn[nH]c32)c1 (centres unmarked) the screen gave 12.79%. CCn1cc(S(=O)(=O)N2CCCC2c2ccc(C)o2)cn1 (centres unmarked) read 13.93%. For O=C(O)C(F)(F)F.O=C(c1ccccc1)N1CCCn2c(CN3CCCCC3)nnc2C1 the result was -24.43%. Cc1nnc(C(C)N2CCCN(Cc3ccc(C#N)cc3)CC2)o1 (centres unmarked) gave -10.72%. c1ccc(NCc2cn3c(n2)CN(Cc2ccoc2)CC3)nc1 gave -36.43%.

For O=C(O)C(F)(F)F.[H][C@@]12CCN(Cc3ccc(F)cc3)C[C@]1(C(=O)N1CCCO1)CCO2 the result was 15.31%. With O=C1CCC2(CCCN(C(=O)c3ccc[nH]3)C2)CN1Cc1cccnc1 (centres unmarked) the screen gave -10.18%. With NC(=O)c1ccnc(N2CCN(Cc3ccc(F)cc3Cl)CC2)c1 the screen gave -25.65%. Result for CC(NC(=O)CCn1cncn1)c1nnc2n1CCCCC2 (centres unmarked) was 18.69%. Cc1ccc(O)c(C(=O)N2CCCC2CC(=O)c2cnn(C)c2)c1 (centres unmarked) gave 17.77%.

Cc1nn(C)c(Cl)c1CN1CCN(c2nccs2)C(C)C1 (centres unmarked) read 25.37%. For COc1ccc2oc(C(C)NC(=O)NCc3noc(C)n3)c(C)c2c1 (centres unmarked) the result was 16.55%. O=C(O)C(F)(F)F.[H][C@@]12COC[C@@H](CC(=O)N3CCOCC3)[C@]1([H])CN(Cc1ccc(C)s1)C2 read 17.39%. N#Cc1ccc(N2CCN(c3nccs3)CC2)nc1 gave -14.8%. For Cn1ncc(N2CCOC(CCNC(=O)NC(C)(C)C)C2)cc1=O (centres unmarked) the result was -21.78%.

With CN(C)CCN1CC2(CCCN(c3ncc(Cl)cc3F)C2)CCC1=O (centres unmarked) the screen gave 20.89%. CC(Nc1nccc(CCC(F)(F)F)n1)c1nc(-c2ccccn2)no1 (centres unmarked) gave 9.377%. Result for CCN(CC)C(CNC(=O)c1ccc(S(=O)(=O)NC)cc1)c1ccco1 (centres unmarked) was 10.81%. CCNc1ccnc(N2Cc3cnc(CC(C)C)nc3C2)n1 read 5.866%. Result for O=C(O)C(F)(F)F.[H][C@]12CCN(c3ccc(C)nn3)C[C@@]1([H])CN(Cc1cccnc1OC)C2 was -44.22%.

Result for Cc1c(-c2nnc(SCC(=O)O)n2C(C)c2ccccc2)cnn1C (centres unmarked) was -34.3%. With CN1CCC(C2CCN(Cc3cccc(-n4cccn4)c3)CC2)C1 (centres unmarked) the screen gave 32.39%. CN(C)C(=O)N1CCN(C(=O)C(c2ccccc2F)N(C)C)CC1 (centres unmarked) read 8.387%. For CN(C)c1ccc2c(c1)CN(C(=O)c1ccnnc1)C2c1cnco1 (centres unmarked) the result was 15.75%.

The last 4 entries again:

{"compound": "Cc1c(-c2nnc(SCC(=O)O)n2C(C)c2ccccc2)cnn1C", "stereo": "centres unmarked", "Percent Effect": -34.3}
{"compound": "CN1CCC(C2CCN(Cc3cccc(-n4cccn4)c3)CC2)C1", "stereo": "centres unmarked", "Percent Effect": 32.39}
{"compound": "CN(C)C(=O)N1CCN(C(=O)C(c2ccccc2F)N(C)C)CC1", "stereo": "centres unmarked", "Percent Effect": 8.387}
{"compound": "CN(C)c1ccc2c(c1)CN(C(=O)c1ccnnc1)C2c1cnco1", "stereo": "centres unmarked", "Percent Effect": 15.75}